The results in this text go back to paper PMC2807451.

Amino acid sequences for entries named in this document (tags omitted).
UniProt P10415: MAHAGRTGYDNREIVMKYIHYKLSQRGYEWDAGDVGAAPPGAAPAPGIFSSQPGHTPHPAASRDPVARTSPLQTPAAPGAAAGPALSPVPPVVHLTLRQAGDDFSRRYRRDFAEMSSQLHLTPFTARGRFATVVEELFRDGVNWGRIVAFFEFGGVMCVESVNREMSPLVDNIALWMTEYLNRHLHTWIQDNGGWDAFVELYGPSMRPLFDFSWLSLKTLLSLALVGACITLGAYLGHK
UniProt Q14457: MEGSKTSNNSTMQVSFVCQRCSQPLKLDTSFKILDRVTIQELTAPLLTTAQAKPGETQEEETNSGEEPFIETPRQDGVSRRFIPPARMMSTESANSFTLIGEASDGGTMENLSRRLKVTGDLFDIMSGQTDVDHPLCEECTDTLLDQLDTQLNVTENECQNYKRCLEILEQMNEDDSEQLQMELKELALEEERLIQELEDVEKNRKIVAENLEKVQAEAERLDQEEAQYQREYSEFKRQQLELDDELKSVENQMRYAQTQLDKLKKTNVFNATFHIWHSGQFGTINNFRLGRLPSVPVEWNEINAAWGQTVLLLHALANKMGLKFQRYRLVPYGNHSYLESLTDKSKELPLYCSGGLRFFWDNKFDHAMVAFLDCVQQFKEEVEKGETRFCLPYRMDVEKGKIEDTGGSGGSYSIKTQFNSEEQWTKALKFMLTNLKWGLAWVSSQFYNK

The target of assay [1] is Bcl-2 (human (endogenous in HCT116-BaxKO)) (UniProt P10415). Briefly: co-IP; endogenous proteins immunoprecipitated from HCT116-BaxKO lysates (1% CHAPS, 10 mM HEPES, 150 mM NaCl, protease inhibitors), 500 ug proteins, 2 ug antibody (anti-Beclin 1, anti-Bcl-2 or anti-Bcl-xL), Protein G-agarose; cells grown in complete medium or starved for 6 hours; Western blot.
In assay [2] the target is Beclin 1 (human (endogenous in HCT116-BaxKO)) (UniProt Q14457). The assay is described as above.

These are yes or no findings as the source states them, for the method shown. In cells and extracts the contact can be indirect. Some binding calls cover weakened binding; strength is not graded here.

For the substance Beclin 1 (from UniProt Q14457 1-450), in assay [1], the binding result is reported as “binds”.
Take Bcl-2 (from UniProt P10415 1-239): in assay [2], the binding entry is listed as “binds”.
